This is an account of results in publication PMC3167817.

Chains of the proteins cited; added tags and fusions are not shown. Lines headed by an entry give the natural chain unless they say otherwise; changes in a name come on top. Residues count along the entry.
UniProt P21860, 20-643: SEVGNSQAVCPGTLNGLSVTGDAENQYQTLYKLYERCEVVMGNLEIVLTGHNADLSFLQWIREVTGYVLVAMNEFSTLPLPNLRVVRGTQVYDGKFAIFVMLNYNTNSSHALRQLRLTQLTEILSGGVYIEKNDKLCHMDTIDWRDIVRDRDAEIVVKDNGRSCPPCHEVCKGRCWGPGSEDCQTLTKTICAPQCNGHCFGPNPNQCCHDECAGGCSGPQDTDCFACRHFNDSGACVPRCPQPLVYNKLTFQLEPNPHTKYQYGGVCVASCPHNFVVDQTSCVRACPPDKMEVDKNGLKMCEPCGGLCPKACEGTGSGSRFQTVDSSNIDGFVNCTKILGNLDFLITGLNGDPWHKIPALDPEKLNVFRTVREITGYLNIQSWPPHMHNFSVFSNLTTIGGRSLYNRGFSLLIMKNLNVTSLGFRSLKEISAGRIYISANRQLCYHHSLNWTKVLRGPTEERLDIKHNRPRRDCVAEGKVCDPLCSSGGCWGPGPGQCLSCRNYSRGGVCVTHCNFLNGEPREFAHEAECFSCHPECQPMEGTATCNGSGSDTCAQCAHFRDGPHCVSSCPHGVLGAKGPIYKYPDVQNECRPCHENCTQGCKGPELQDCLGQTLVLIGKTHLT
UniProt Q15303: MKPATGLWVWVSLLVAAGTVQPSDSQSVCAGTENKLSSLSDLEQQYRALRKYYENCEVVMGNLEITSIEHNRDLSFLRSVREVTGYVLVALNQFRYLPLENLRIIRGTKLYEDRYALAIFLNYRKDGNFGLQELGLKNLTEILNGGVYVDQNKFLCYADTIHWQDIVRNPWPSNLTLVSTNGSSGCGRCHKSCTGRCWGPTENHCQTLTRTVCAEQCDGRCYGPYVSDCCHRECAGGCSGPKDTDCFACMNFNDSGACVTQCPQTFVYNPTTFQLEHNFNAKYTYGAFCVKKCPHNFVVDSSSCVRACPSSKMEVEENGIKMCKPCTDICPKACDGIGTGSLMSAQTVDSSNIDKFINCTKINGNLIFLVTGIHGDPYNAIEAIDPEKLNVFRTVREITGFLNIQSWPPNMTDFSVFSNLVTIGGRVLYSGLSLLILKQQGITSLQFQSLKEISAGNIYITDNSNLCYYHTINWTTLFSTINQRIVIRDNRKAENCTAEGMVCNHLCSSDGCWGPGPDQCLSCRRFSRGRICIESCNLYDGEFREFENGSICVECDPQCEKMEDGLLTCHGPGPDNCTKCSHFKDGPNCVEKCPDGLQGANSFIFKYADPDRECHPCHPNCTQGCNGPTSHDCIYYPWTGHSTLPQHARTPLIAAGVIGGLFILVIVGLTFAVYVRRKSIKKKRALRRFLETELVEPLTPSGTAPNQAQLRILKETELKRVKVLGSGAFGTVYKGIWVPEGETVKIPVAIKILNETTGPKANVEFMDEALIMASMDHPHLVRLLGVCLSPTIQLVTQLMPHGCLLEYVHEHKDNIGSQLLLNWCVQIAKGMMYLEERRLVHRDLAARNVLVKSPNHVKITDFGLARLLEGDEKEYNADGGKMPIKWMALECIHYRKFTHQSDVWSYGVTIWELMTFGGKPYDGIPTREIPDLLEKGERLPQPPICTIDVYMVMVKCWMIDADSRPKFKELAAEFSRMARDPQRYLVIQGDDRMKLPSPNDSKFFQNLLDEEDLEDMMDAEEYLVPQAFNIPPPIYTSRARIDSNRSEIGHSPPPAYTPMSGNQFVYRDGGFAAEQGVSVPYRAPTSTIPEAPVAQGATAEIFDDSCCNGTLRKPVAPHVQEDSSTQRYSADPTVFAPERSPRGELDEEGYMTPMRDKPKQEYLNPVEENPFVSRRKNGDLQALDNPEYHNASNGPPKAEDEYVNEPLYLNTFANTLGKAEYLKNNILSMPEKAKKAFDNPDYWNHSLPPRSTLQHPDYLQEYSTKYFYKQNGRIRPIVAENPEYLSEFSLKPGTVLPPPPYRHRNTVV

Data set [1] deals with EGFR on A549 cells (endogenous) (human) (UniProt P00533). The experiment in a line: pull-down. Conditions: streptavidin, anti-EGFR immunoblot; 2'-fluoro pyrimidines; pull-down: 200 nM aptamer on A549 cells 30 min RT, lysis in 10 mM Tris-HCl pH 7.5, 200 mM NaCl, 5 mM EDTA, 0.1% Triton X-100; protein on the cell surface; label: 3'-biotin. Background: Immunoblotting shows a protein as a band on a membrane.

The target of data set [2] is EC-ErbB3, DTT treated (human) (UniProt P21860). As to the kind of experiment: filter binding. To be noted: 5 mM DTT, 20 and 40 nM protein; 2'-fluoro pyrimidines; Filter binding: 1 nM radiolabeled RNA, PBS + 0.01% BSA, 15 min, 37 C (5 mM DTT for monomer); CL4sc background subtracted; commercial protein.
The next data set deals with ErbB2 (UniProt P04626). Conditions: 2'-fluoro pyrimidines.
The next data set addresses ErbB4 (UniProt Q15303). Conditions: 2'-fluoro pyrimidines.

The exact form of at least one protein or probe is not confirmed. A negative result means that nothing was seen under these conditions. For some assays here: At least one verdict was read from the data and is not stated in words by the source. For some assays here: At least one result comes from cells or an extract, where the contact may be indirect.

Take “GCCUUAGUAACGUGCUUUGAUGUCGAUUCGACAGGAGGC [CL4-bio]”: the binding result in data set [1] is given as “binds”.

With “GCCUUAGUAACGUGCUUUGAUGUCGAUUCGACAGGAGGC [CL4]”, the binding result (in data set [2]; with ErbB2; with ErbB4) was “no binding” in each case. In the case of “UUCGUACCGGGUAGGUUGGCUUGCACAUAGAACGUGUCA [CL4sc]”, the binding result in data set [1] is given as “no binding”.
